Source: patent US20080003127A1, “Non-Ferrous Metal Cover Gases” (Honeywell International Inc., priority 2006, published 2008)

How the values were obtained:
[1] = Global Warming Potential (GWP); details: 100 year time horizon, relative to CO2

| Compound | GWP (100 Yr) [1] | Atmospheric Lifetime (Yr) (Atmospheric lifetime) |
| --- | --- | --- |
| O=C(C(F)(F)C(F)(F)F)C(F)(C(F)(F)F)C(F)(F)F [C2F5C(O)CF(CF3)2] | 10 | 0.1 Yr |
| FC(F)(F)C(F)(F)F [C2F6] | 11,400 | 10,000 Yr |
| O=C=O [CO2, carbon dioxide] | 1 | 100-150 Yr |
| FCC(F)(F)F [HFC-134a, 1,1,1,2-tetrafluoroethane] | 1600 | 13.6 Yr |
| CC(F)F [HFC-152a, difluoroethane] | 140 | 1.5 Yr |
| C=C(Cl)C(F)(F)F [HFCO-1233xf, 1,1,1-trifluoro-2-chloro-propene] | <20 | <0.1 Yr |
| C=C(F)C(F)(F)F [HFO-1234yf, 1,1,1,2-tetrafluoropropene] | 4 | 0.04 Yr |
| FN(F)F [NF3, nitrogen trifluoride] | 10,800 | 740 Yr |
| FS(F)(F)(F)(F)F [SF6, sulfurhexafluoride] | 23,900 | 3,200 Yr |
| O=S(=O)(F)F [SO2F2, sulfuryl fluoride] | 0.1 | dissipates quickly |
| FC(F)(F)/C=C\Cl [cis-HFCO-1233zd, cis-1,1,1-trifluoro-3-chloro-propene] | <20 | <0.1 Yr |
| F/C=C(\F)C(F)F [cis-HFO-1234ye] | <15 | <0.1 Yr |
| FC(F)(F)/C=C/Cl [trans-HFCO-1233zd, trans-1,1,1-trifluoro-3-chloro-propene] | <20 | <0.1 Yr |
| F/C=C/C(F)(F)F [trans-HFO-1234ze, trans-1,3,3,3-tetrafluoropropene] | 6 | 0.05 Yr |
| methoxy-nonafluorobutane [HFE-7100] | 320 | 4.1 Yr |
